Test results published in PMC11053755.
Results are given in words; binding and its absence hold for the method and conditions named. Some results given as binding are weak or reduced against the parent protein; the word gives no strength.

Target: OsSHMT1 (rice serine hydroxymethyltransferase 1) (rice (Oryza sativa)) (UniProt Q10D68)
Assay: two-hybrid; GAL4 system; OsSHMT coding regions in pGBKT7 (BD) and pGADT7 (AD), co-transfected into yeast AH109; grown on SD/-Leu/-Trp, then SD/-Leu/-Trp/-His/-Ade to verify interactions

B1: OsSHMT1 (rice serine hydroxymethyltransferase 1) (enzyme, UniProt Q10D68 1-513)
chain: MAMATALRKLSSDALRRQPLSRITPLYYMASLPATEERSGVTWPKQLNAPLEEVDPEIADIIEHEKARQWKGLELIPSENFTSVSVMQAVGSVMTNKYSEGYPGARYYGGNEYIDMAESLCQKRALEAFRLDPAKWGVNVQPLSGSPANFHVYTALLKPHERIMALDLPHGGHLSHGYQTDTKKISAVSIFFETMPYRLDESTGLIDYDQMEKSAVLFRPKLIVAGASAYARLYDYDRMRKVCDKQKAILLADMAHISGLVAAGVVPSPFDYADVVTTTTHKSLRGPRGAMIFYRKGVKGVNKQGKEVMYDFEDKINAAVFPGLQGGPHNHTITGLAVALKQATTPEYRAYQEQVMSNCAKFAQSLTAKGYELVSGGTDNHLVLVNLKSKGIDGSRVEKVLENVHIAANKNTVPGDVSAMVPGGIRMGTPALTSRGFVEEDFAKVADFFDAAVNLALKVKAAAGGTKLKDFVATLQSDSNIQSEIAKLRHDVEEYAKQFPTIGFEKETMKYKN
binding: binds
